This is an account of results in PMC7819943, “Rice protein-binding microarrays: a tool to detect cis-acting elements near promoter regions in rice”.

Chains of the proteins cited; added tags and fusions are not shown.
UniProt Q0JBA9, entry or part of it: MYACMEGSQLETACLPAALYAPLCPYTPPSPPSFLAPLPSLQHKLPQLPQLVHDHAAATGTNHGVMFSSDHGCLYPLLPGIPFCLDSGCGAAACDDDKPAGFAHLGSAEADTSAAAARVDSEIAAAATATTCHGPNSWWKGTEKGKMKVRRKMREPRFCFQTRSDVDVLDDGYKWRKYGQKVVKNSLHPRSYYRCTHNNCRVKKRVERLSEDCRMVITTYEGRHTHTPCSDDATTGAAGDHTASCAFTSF

The list shows a part of the results.

The target in the test is OsWRKY34 (Oryza sativa, UniProt Q0JBA9 1-250). Nature of the test: protein-binding microarray (RPBM); PBS, 2% BSA, 51.3 ng/ul salmon testes DNA, 50 uM zinc acetate, 200 nM TF, 25 C, 1 h; high values mean tight binding. The settings on record: protein: recombinant; tags: N-terminal polyhistidine and DsRed monomer fusion (pET32a); label: CyDye5-dUTP incorporated in the synthesized complementary strand; 3' TTTTT single-stranded linker to array surface; dsDNA, one strand shown. The procedure, abridged:
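Ni–NTA purification followed expression in E. coli BL21-CodonPlus of transcription factors fused N-terminally to a polyhistidine tag and DsRed. At 200 nM in PBS with 2% BSA, salmon testes DNA and 50 µM zinc acetate, the protein was incubated for 1 h at 25 °C with a custom Agilent array that had been primer-extended with Cy5-dUTP and blocked with 2% BSA. After washing, the array was read on an Axon 4000B scanner. The binding signal is per-feature fluorescence intensity in arbitrary units.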
As for “TCTCCTGCTACGCGTGATCATTCTTTTTTTTTTTTTTTGACGGAGTCACCTAGTGCAG”, the binding signal is 9610 fluorescence intensity (a.u.). Under “TCTGCTTCCTACCATGTCAACCTACTAATTTGCTGGTTAACGGAGTCACCTAGTGCAG” stands 9950 fluorescence intensity (a.u.); under “AATACCCATCGGGTTCTCTTGCCCCATACCCACACCCGCGCGGAGTCACCTAGTGCAG”, 10300 fluorescence intensity (a.u.). On to “AAAGTACCCGAATCTCTTAACATACAGTTGGCATTGTCTTCGGAGTCACCTAGTGCAG”, for which the binding signal was 8180 fluorescence intensity (a.u.). The figure for “GGCTTTAATTGATCACTATGAATACTTGGCTTGTTGTCATCGGAGTCACCTAGTGCAG” is 9040 fluorescence intensity (a.u.); for “CACCACCGGCCGCCTCCTCCTACCACTCTTTTCGCTTTGCCGGAGTCACCTAGTGCAG” it is 9530 fluorescence intensity (a.u.). On to “TTCTATAAAATTAGTTTGACTTTGACCAAACTCAAAACGTCGGAGTCACCTAGTGCAG”, for which the binding signal is 11500 fluorescence intensity (a.u.). The figure for “ACGCTAGCTAACCCACCCACTCACCCCACCCATCCACGACCGGAGTCACCTAGTGCAG” is 8830 fluorescence intensity (a.u.). “TTATCAAAAGTACTTTTTAAGTATGACTTCTCCGTTTTTACGGAGTCACCTAGTGCAG”: the binding signal was 8280 fluorescence intensity (a.u.). As to “CGCCACGGCCCGCTCATGCTGCTCCGCCTCTGCGAGCTCCCGGAGTCACCTAGTGCAG”, the binding signal was 8470 fluorescence intensity (a.u.). The figure for “ATGACTTTCTCTTTGTTGCCGCGTGGTAGGAGCAATCGCACGGAGTCACCTAGTGCAG” is 10900 fluorescence intensity (a.u.); for “CTGCCACCGCCGGCTGCGAGTTCACGGCGCCTCGCCGACACGGAGTCACCTAGTGCAG” it is 10000 fluorescence intensity (a.u.); for “CGTGTTTAAGTGGTGTGTGTCACTATCCTTCATCAGTTCCCGGAGTCACCTAGTGCAG” it is 12200 fluorescence intensity (a.u.). The figure for “GCCTTATGATGTTGAAGAGCATATCGTTCGGATGTTTTTACGGAGTCACCTAGTGCAG” is 9890 fluorescence intensity (a.u.); for “GGGTCACACATATATTTTTTTATTCTAATGCCACTTAAACCGGAGTCACCTAGTGCAG” it is 8820 fluorescence intensity (a.u.).

Turning to “GCTACTATAAGGTTTTGTTCTCAACTCGAGGCTCCCAACCCGGAGTCACCTAGTGCAG”, the binding signal was 8940 fluorescence intensity (a.u.).

Regarding “CCAGTGGTGGAGTGGAGTGGTGGTGGGGAGACGTGAGGAGCGGAGTCACCTAGTGCAG”, the binding signal was 8630 fluorescence intensity (a.u.). Under “GATTCATTATTTTTGCACTTCACTATTTTGTAGATTTAATCGGAGTCACCTAGTGCAG” stands 9070 fluorescence intensity (a.u.). On to “AGATGTTGTTGCCAAAATTTTGCATGTAGGTTACAGTTCGCGGAGTCACCTAGTGCAG”, for which the binding signal is 8230 fluorescence intensity (a.u.).

“TCGTTTTGTATACGCTGATTTTTTTTTCGTTTCATATATCCGGAGTCACCTAGTGCAG”: the binding signal is 9550 fluorescence intensity (a.u.).

Regarding “AATCCAAGCAACTATTCTTTGTTAAGTCAAGTTTCCAATCCGGAGTCACCTAGTGCAG”, the binding signal was 9230 fluorescence intensity (a.u.). Turning to “TTGGTTTGTTTTTGAGTTTGTTTTTATTGGTGGTATCCTCCGGAGTCACCTAGTGCAG”, the binding signal is 9070 fluorescence intensity (a.u.). On to “TTTGTCATTGCGTCTTTGCAAGCTACATACGTACCTACGTCGGAGTCACCTAGTGCAG”, for which the binding signal was 8560 fluorescence intensity (a.u.).

For “AGGTGAGGGGTGGTGGGGCCACGGGGACAGGGAGAGGAGCCGGAGTCACCTAGTGCAG”, the binding signal is 12400 fluorescence intensity (a.u.). Regarding “GAGCCTTAAATCTCCATACTGTGTGATGAATTCTTTTGTTCGGAGTCACCTAGTGCAG”, the binding signal was 8580 fluorescence intensity (a.u.). Under “ACTTGGTAACCTCTCCACTATTTTCTGCTCCATTGCTAATCGGAGTCACCTAGTGCAG” stands 9120 fluorescence intensity (a.u.); under “CGGTTATAGTGTGAGTGTGTGCTTGTGTCATGGAATGTGACGGAGTCACCTAGTGCAG”, 8920 fluorescence intensity (a.u.); under “TACCGGTGGCGCCGCTCTCTCTCGCACCCCAAAGTTGGCACGGAGTCACCTAGTGCAG”, 9420 fluorescence intensity (a.u.).

As for “TCCAACATAATAACTAGTGATGTGCTTCTACTGTTTCTTTCGGAGTCACCTAGTGCAG”, the binding signal was 8250 fluorescence intensity (a.u.). Consider “CTGCCTCCATCCATCCGCCGCGTCTCGCCGCCGGTCGCACCGGAGTCACCTAGTGCAG”, for which the binding signal is 10800 fluorescence intensity (a.u.). “TTTCTTTACCACAAGTTTGACCATTTATTTTATTCAAACACGGAGTCACCTAGTGCAG”: the binding signal is 10100 fluorescence intensity (a.u.). Under “TCTAAATTTGCGCAACCTCTCATGCCACTCTCCGTCAGTTCGGAGTCACCTAGTGCAG” stands 8680 fluorescence intensity (a.u.); under “TCTGGTTTTTCTTATCCTCTGTGATGTTGCACGCGATACACGGAGTCACCTAGTGCAG”, 8210 fluorescence intensity (a.u.); under “GAACGCGTAAAATTTGTGTCTCTTCACCTATATGTATATTCGGAGTCACCTAGTGCAG”, 14900 fluorescence intensity (a.u.).

Turning to “GTCGTGGGCGGGAGGTGGTGGTGGTGGTGCTGCTGCATTGCGGAGTCACCTAGTGCAG”, the binding signal is 11600 fluorescence intensity (a.u.). With “CCCGCATCGTTAAATACACTATTTATTCTATAATCTATAGCGGAGTCACCTAGTGCAG”, the binding signal is 8350 fluorescence intensity (a.u.). Regarding “TATTTAATTAATTATTTTCTCTCATCTCGTCTTCTCCGCACGGAGTCACCTAGTGCAG”, the binding signal was 8070 fluorescence intensity (a.u.).

On to “CGGCGGAGGGAGGATCGGGGTGGGTGGCGCAGCGGCGACGCGGAGTCACCTAGTGCAG”, for which the binding signal is 11200 fluorescence intensity (a.u.). Under “AAATTACTTTTATGATATGTCTAAATTACTTCTAGATTTCCGGAGTCACCTAGTGCAG” stands 8100 fluorescence intensity (a.u.); under “AATTACCACTTTTCTCGTATTTAAGCTCTTCAATCTCCCGCGGAGTCACCTAGTGCAG”, 11000 fluorescence intensity (a.u.).

As to “AGCCGATGCTCCTCCTCCTCCACCCTATTCCTCCTCGCATCGGAGTCACCTAGTGCAG”, the binding signal is 8650 fluorescence intensity (a.u.).

For the sequence “GGTCTGCTCTTTCTTGACCTCTGTAACTGCTTTTCCTTCTCGGAGTCACCTAGTGCAG”, the binding signal is 10600 fluorescence intensity (a.u.).
